Reference: PMC5461490
These are yes or no findings as the source states them, for the method shown. Binding seen in cells or lysates may run through a third protein. Some entries that bind do so weakly or less than the wild type.

Amino acid sequences for entries named in this document (tags omitted). Residues count along the entry.
UniProt P06241: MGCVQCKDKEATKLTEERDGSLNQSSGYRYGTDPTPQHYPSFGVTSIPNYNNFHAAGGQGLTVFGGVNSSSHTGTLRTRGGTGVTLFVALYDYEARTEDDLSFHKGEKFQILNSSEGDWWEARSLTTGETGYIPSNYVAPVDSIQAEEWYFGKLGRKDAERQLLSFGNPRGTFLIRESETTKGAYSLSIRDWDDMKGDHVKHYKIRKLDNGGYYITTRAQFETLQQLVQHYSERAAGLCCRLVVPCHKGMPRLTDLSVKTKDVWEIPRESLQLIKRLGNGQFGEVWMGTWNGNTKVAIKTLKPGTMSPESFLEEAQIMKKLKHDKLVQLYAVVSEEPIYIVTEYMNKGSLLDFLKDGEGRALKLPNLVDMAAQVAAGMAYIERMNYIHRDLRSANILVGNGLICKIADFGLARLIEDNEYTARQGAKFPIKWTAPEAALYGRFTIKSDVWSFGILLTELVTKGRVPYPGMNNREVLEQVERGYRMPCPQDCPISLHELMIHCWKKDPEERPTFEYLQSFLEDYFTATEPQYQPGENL
UniProt P23471, residues 25-2315: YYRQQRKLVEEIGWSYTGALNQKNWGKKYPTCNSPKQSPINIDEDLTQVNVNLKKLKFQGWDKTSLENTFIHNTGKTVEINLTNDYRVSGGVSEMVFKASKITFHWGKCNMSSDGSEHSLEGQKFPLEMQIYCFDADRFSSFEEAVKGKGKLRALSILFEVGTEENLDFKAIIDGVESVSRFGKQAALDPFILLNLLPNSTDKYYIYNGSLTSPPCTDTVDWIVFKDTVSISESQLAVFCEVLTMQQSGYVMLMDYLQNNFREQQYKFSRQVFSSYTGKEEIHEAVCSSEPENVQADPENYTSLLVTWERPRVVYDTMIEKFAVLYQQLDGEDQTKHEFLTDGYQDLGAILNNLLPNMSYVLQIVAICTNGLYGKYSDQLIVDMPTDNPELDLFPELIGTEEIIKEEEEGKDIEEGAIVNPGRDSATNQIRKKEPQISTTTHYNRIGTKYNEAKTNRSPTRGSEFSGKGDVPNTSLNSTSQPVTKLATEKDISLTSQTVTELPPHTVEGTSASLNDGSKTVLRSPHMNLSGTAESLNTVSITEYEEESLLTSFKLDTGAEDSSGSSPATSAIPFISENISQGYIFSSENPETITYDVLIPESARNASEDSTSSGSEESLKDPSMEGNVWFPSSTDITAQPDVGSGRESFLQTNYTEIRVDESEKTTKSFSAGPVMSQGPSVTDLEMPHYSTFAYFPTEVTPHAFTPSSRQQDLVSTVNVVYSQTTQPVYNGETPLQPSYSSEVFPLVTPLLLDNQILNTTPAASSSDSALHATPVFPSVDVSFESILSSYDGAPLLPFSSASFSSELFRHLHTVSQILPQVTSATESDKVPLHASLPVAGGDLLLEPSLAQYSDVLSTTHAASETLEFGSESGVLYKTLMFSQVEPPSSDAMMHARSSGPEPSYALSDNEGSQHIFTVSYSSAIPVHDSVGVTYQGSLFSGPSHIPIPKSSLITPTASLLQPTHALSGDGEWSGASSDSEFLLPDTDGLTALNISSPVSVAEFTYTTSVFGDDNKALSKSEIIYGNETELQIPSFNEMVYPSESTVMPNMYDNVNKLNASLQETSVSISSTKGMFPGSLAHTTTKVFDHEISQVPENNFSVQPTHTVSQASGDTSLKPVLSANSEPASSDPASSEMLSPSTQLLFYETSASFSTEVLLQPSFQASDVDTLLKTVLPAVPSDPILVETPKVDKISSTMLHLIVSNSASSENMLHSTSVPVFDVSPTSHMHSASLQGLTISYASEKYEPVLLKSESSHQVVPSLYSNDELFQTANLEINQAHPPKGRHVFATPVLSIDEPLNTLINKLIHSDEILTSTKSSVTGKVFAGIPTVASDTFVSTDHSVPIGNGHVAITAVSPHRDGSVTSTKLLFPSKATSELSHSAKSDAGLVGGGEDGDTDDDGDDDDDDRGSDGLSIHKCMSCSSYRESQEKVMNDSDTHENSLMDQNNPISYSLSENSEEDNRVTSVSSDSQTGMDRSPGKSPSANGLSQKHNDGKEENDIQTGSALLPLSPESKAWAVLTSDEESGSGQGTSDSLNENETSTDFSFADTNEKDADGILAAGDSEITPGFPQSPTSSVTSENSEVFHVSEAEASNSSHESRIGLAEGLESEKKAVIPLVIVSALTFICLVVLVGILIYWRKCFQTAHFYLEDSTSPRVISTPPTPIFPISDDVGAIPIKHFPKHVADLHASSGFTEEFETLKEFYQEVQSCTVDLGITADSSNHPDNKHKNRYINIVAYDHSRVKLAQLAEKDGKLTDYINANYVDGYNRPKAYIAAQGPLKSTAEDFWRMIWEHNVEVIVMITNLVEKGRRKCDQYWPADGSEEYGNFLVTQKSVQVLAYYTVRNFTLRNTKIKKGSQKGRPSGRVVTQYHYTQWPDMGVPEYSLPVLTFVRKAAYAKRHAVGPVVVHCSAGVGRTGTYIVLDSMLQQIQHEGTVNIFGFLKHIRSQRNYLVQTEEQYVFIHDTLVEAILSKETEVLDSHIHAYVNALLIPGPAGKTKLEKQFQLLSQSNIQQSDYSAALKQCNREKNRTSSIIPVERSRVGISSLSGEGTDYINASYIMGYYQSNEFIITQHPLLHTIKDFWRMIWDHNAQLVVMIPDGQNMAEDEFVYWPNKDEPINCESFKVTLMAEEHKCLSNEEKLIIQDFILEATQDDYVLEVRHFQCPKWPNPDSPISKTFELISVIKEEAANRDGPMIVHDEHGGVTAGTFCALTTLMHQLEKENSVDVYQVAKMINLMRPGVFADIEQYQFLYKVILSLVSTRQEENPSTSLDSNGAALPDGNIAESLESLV

Biological target: Fyn (human (endogenous in GSCs isolated from human GBM)) (UniProt P06241)
Assay: co-IP; lysates of T387 and T0912 GSCs (50 mM Tris-HCl pH 7.4, 150 mM NaCl, 5 mM EDTA, 10% glycerol, 1% NP-40); 500 ug protein with anti-Fyn antibody (Santa Cruz, sc-16) and Protein A/G Plus Agarose, 14 h at 4 C; washed four times with 0.1% Triton-100 in PBS; blot for PTPRZ1; normal rabbit IgG as negative control

protein tyrosine phosphatase, receptor-type, Z polypeptide 1 (PTPRZ1) (from UniProt P23471 25-2315)
binding: binds
